Test [1] addresses T1, cell-free synthesized FtsA (E. coli) (UniProt P0ABH0).
T1 sequence: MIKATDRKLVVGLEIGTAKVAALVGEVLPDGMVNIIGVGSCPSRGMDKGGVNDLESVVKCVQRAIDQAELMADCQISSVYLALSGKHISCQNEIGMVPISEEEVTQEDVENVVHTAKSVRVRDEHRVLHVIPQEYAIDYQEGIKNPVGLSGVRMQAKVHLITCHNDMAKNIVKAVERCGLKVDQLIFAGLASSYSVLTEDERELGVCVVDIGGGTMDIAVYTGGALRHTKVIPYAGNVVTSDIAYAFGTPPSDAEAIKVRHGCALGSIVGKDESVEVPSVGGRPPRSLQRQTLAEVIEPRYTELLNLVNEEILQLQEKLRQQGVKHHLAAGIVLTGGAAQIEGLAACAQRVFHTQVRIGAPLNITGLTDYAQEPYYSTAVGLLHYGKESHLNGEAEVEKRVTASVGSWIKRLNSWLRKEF
The test can be described thus: recruitment to the liposome membrane, confocal fluorescence microscopy; ftsAopt expressed in PUREfrex2.0 inside liposomes (DOPC/DOPE/DOPG/CL) with 3 µM purified FtsZ-A647, 2 mM GTP, 2 mM ATP; 37 °C, 1.5-6 h; control without the ftsAopt gene: FtsZ only in the lumen; only the binder purified.

By UniProt entry, the sequences of proteins in these tests, tags left out.
UniProt P0A9A6: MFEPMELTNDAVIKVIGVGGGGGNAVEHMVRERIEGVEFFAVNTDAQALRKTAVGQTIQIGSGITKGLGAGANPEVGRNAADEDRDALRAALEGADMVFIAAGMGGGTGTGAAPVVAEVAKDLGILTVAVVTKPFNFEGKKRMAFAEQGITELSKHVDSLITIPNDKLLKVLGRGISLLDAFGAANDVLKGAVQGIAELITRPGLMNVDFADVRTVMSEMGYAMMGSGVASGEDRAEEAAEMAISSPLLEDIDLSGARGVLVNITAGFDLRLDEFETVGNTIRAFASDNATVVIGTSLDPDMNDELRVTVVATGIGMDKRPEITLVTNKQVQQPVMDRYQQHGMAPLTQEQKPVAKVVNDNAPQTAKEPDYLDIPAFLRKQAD

The target in test [2] is T1, cell-free synthesized FtsA (E. coli). Nature of the test: recruitment to a supported lipid bilayer, fluorescence microscopy; FtsA expressed in PUREfrex2.0 directly on the SLB (DOPC/DOPG/DGS-NTA); 3 µM purified FtsZ-A647 added; 2 mM GTP, 2 mM ATP; with or without Ficoll70 or cell-free synthesized ZapA; spinning disk microscopy at room temperature; only the binder purified.

These are yes or no findings as the source states them, for the method shown. Some entries that bind do so weakly or less than the wild type.

With “FtsZ labelled with Alexa Fluor 647 (from UniProt P0A9A6 1-383)”, the binding entry in test [1] and in test [2] was “binds” in each case.

These data come from paper PMC7527988.
